For 40 targets, log2 fold change results are on record in the supplement of paper PMC12819154, “High-throughput peptide-centric local stability assay extends protein–ligand identification to membrane proteins, tissues and bacteria” (Nature Structural & Molecular Biology, 2025).

Sequences of proteins named here, by UniProt entry; tags and fusion partners are left off. A change or cut given only in a name is not applied to a line headed by its entry.
UniProt Q78YZ6: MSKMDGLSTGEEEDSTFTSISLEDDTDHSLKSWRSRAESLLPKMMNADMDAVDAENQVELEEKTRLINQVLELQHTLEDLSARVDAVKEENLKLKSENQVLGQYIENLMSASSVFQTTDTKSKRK
UniProt Q7TQ32: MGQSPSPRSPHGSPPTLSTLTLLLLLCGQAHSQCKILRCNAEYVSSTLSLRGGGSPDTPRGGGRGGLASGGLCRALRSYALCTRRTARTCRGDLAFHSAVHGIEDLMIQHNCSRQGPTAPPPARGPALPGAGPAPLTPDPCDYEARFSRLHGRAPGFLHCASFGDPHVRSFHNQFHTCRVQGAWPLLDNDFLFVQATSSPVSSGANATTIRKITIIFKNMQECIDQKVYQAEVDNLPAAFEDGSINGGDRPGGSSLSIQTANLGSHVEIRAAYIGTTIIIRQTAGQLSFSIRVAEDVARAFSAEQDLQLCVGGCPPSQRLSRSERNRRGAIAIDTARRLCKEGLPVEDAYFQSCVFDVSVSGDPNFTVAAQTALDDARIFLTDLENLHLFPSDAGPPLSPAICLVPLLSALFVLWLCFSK
UniProt Q7TMW6: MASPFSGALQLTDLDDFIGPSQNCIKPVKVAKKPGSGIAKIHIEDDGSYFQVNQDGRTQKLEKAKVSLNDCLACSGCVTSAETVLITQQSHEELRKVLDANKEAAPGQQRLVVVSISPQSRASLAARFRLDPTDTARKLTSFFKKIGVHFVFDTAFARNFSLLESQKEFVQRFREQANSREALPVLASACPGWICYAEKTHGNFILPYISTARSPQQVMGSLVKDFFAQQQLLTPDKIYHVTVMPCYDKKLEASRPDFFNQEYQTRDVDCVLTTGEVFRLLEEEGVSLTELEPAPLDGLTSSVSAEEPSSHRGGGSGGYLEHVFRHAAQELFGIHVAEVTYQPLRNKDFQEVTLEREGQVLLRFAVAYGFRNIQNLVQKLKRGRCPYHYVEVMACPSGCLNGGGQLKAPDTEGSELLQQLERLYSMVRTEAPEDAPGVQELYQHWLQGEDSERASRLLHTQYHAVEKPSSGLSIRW
UniProt Q80UZ0: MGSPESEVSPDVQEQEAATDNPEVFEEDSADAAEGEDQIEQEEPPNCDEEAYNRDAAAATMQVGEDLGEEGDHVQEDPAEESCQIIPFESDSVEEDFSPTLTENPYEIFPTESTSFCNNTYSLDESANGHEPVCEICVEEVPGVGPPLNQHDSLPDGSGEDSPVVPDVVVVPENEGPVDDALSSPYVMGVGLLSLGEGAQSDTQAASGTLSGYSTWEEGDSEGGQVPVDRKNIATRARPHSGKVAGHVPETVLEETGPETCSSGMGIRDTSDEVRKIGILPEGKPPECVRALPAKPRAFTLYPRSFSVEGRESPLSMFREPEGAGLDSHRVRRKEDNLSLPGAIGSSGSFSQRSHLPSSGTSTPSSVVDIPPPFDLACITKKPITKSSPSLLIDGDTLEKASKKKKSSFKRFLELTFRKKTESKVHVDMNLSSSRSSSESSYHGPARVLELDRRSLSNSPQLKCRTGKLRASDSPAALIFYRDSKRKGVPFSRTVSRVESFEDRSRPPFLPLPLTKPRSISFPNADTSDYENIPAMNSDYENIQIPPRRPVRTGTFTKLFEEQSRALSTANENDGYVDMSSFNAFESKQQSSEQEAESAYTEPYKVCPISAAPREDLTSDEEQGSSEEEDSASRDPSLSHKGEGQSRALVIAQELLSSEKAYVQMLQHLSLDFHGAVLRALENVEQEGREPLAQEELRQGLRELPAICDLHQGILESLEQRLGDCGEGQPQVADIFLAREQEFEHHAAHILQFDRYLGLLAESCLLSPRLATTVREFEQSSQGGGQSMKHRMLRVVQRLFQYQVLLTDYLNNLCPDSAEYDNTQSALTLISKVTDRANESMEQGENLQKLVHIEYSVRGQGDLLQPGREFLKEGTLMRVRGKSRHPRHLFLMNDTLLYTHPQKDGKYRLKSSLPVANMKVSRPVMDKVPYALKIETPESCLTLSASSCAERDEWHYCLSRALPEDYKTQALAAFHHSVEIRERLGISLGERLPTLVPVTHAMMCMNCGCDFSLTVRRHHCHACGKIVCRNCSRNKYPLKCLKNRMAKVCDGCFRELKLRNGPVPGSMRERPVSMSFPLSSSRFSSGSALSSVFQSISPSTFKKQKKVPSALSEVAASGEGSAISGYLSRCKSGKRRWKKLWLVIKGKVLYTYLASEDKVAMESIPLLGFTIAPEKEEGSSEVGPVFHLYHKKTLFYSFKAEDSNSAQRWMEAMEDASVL
UniProt Q7SIG6: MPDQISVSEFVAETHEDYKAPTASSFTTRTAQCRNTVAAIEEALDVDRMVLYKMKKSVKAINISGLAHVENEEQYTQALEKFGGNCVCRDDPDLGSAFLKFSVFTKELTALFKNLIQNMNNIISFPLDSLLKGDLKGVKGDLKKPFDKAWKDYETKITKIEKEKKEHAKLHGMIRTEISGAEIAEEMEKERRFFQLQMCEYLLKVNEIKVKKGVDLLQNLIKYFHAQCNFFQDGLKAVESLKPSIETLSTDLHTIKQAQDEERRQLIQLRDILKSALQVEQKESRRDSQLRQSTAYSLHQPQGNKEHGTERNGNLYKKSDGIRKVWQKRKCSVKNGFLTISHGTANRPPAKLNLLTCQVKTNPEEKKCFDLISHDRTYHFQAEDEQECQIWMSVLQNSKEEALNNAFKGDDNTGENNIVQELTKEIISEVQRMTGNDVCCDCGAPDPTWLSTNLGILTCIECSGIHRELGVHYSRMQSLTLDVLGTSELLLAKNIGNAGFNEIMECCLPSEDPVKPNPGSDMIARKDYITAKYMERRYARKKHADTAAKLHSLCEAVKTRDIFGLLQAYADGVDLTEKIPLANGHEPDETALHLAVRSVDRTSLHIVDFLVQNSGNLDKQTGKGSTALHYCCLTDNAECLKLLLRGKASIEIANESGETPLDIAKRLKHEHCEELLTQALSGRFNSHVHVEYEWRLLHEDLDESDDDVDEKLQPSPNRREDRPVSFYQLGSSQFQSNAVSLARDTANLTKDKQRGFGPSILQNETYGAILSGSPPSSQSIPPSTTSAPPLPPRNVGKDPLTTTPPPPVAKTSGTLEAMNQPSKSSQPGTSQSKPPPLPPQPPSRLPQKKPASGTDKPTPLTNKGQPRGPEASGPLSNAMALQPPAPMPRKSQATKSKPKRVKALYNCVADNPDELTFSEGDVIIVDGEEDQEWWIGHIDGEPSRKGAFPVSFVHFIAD
UniProt Q6ZPY5: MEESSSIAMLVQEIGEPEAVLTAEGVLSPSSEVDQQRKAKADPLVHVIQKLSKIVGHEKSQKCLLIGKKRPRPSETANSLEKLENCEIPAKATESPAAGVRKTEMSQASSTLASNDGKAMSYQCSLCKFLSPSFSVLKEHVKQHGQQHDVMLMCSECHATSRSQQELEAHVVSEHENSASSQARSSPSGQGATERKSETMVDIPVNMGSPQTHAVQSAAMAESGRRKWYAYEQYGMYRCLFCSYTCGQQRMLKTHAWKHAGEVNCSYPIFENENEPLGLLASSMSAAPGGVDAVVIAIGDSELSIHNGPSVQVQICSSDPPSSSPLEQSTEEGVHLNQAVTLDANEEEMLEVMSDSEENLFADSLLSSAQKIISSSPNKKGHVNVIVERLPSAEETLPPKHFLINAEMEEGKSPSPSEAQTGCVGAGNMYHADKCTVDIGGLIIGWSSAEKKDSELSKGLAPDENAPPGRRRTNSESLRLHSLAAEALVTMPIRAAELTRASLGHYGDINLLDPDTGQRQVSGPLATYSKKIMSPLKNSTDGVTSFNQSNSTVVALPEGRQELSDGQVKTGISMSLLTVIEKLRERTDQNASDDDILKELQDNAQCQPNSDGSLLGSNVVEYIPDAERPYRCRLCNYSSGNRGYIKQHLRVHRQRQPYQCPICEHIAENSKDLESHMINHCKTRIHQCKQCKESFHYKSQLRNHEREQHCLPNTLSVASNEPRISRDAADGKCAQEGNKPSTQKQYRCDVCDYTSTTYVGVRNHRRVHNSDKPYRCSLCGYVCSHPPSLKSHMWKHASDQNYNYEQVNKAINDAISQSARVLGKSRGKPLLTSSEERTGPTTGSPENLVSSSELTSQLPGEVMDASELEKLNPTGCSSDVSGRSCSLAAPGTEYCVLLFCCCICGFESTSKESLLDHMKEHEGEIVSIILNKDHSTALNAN
UniProt Q76KJ5, whole entry: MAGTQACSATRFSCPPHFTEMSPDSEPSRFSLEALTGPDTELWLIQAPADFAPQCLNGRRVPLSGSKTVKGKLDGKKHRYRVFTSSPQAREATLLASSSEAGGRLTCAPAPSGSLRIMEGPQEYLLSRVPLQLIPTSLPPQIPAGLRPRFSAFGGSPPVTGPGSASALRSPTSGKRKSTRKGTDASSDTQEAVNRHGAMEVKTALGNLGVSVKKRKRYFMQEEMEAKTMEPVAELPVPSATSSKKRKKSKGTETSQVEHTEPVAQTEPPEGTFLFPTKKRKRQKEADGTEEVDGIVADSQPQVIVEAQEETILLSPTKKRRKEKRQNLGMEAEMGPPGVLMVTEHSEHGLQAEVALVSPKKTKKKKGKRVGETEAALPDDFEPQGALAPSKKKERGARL
UniProt Q7TN31: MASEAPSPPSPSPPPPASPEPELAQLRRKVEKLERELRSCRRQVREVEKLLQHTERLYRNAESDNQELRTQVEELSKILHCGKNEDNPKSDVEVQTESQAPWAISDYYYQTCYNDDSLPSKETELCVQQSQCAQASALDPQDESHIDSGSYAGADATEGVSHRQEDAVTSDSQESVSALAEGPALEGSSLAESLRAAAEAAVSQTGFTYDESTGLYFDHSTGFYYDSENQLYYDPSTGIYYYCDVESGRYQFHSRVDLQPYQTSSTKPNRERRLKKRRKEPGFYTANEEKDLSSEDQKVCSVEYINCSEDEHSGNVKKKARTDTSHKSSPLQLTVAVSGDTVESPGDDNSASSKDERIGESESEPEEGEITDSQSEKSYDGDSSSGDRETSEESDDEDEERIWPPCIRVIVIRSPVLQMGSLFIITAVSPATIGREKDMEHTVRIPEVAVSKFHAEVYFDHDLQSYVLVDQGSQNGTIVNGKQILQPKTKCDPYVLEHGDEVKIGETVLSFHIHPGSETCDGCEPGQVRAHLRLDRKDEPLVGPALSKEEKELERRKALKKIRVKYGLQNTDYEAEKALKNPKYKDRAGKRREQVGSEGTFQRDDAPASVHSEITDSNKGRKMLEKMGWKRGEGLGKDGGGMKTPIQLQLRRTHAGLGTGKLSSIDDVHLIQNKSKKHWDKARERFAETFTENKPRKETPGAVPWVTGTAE
UniProt Q6ZPI0, whole entry: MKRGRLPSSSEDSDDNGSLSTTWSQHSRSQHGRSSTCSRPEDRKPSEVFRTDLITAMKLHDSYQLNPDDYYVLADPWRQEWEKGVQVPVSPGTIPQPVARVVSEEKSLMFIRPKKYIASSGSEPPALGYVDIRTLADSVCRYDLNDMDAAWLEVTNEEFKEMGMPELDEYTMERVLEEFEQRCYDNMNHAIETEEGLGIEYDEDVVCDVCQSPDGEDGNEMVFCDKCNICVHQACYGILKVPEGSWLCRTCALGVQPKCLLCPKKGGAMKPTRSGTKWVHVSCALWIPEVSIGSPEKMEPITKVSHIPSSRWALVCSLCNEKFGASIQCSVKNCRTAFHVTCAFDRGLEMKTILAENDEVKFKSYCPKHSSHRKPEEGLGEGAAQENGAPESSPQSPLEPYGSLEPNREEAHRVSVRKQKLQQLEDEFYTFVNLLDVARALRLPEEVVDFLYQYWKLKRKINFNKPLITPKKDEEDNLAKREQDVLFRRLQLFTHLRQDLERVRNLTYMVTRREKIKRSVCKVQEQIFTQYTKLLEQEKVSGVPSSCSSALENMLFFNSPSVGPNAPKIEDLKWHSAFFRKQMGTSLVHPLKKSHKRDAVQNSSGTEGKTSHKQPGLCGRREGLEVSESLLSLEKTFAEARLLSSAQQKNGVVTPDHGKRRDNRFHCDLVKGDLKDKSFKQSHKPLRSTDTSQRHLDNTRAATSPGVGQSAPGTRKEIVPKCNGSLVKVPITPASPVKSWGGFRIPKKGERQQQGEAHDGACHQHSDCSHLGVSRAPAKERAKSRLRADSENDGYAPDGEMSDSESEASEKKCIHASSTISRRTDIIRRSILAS
UniProt Q7M753: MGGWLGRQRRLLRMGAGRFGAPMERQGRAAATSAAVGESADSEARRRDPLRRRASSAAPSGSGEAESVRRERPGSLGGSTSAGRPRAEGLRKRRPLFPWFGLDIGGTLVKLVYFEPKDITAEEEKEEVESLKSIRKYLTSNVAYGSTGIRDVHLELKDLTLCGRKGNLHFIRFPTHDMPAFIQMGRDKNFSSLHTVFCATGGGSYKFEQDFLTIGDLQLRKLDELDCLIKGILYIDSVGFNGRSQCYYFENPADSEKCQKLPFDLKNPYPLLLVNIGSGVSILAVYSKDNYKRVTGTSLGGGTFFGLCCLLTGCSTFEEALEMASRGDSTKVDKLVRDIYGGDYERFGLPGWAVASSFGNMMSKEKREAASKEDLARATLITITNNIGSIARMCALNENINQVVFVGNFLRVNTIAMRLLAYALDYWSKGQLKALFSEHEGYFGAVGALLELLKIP

Some of the results follow. Most values lie at the level of the controls, where differences are scatter.

Compound in this assay: CN[C@@H]1C[C@H]2O[C@@](C)([C@@H]1OC)n1c3ccccc3c3c4c(c5c6ccccc6n2c5c31)C(=O)NC4 [staurosporine]
The assay can be described thus: log2 fold change of tryptic peptide abundance, ligand vs vehicle (limited proteolysis) (log2 ratio); higher = more trypsin-susceptible (destabilized). Particulars: ligand concentration: 20 uM; sample: mouse liver crude lysate; replicate design: treated separately.
For “UniProt Q7M6Y3 (peptide sequence: SLITTHHLMVYGNER, peptide start residue: 78)”, the log2 fold change was -0.364.
Take “UniProt Q80TJ7 (peptide sequence: VASIETGLAAAAAK, peptide start residue: 921)”: the log2 fold change turned out to be 0.171.
For the target “UniProt Q78YZ6 (peptide sequence: VDAVKEENLK, peptide start residue: 84)”, the log2 fold change amounted to 0.0189.
With “UniProt Q80TN7 (peptide sequence: QNLEETMSSLR, peptide start residue: 273)”, the log2 fold change is -0.428.
For “UniProt Q7TN99 (peptide sequence: RFGPLVVDWPHKAESK, peptide start residue: 286)”, the log2 fold change is -0.21.
On to “UniProt Q6ZWR6 (peptide sequence: AIHEYLQK, peptide start residue: 6948)”, for which the log2 fold change was -0.474.
For “UniProt Q7TMY7 (peptide sequence: YGSPGNVTK, peptide start residue: 276)”, the log2 fold change came out at 0.683.
Regarding “UniProt Q80U59 (peptide sequence: SILCSDSDSEVFHPR, peptide start residue: 1077)”, the log2 fold change is -0.826.
To “UniProt Q80UU2 (peptide sequence: KLAEGGQASAATLQPLK, peptide start residue: 241)” belongs -0.713; to “UniProt Q78RX3 (peptide sequence: KLDEMLGK, peptide start residue: 57)”, 0.0827; to “UniProt Q7TQ32 (peptide sequence: GGLASGGLCR, peptide start residue: 65)”, 0.0389.
With “UniProt Q7TMW6 (peptide sequence: LLHTQYHAVEKPSSGLSIR, peptide start residue: 457)”, the log2 fold change is -0.501.
In the case of “UniProt Q80TA9 (peptide sequence: IQHEFQETVALWTQAK, peptide start residue: 1448)”, the log2 fold change was -0.567.
“UniProt Q711T7 (peptide sequence: VDLVTMATSK, peptide start residue: 213)”: the log2 fold change is -0.464.
For “UniProt Q80UZ0 (peptide sequence: SRPPFLPLPLTKPR, peptide start residue: 505)”, the log2 fold change amounted to 0.153.
Regarding “UniProt Q7SIG6 (peptide sequence: AVESLKPSIETLSTDLHTIK, peptide start residue: 237)”, the log2 fold change was -0.59.
“UniProt Q7TQH7 (peptide sequence: QDMTPGGTSGGR, peptide start residue: 535)”: the log2 fold change turned out to be 0.131.
“UniProt Q6ZPY5 (peptide sequence: GKPLLTSSEER, peptide start residue: 827)”: the log2 fold change turned out to be 0.18.
For “UniProt Q76KJ5 (peptide sequence: TALGNLGVSVK, peptide start residue: 203)”, the log2 fold change is -0.289.
Take “UniProt Q7TSF4 (peptide sequence: REEAGTLLQHLR, peptide start residue: 70)”: the log2 fold change is -0.281.
As for “UniProt Q7TQK5 (peptide sequence: KIDEVPSRAELIQYQK, peptide start residue: 482)”, the log2 fold change is -0.212.
“UniProt Q7TN31 (peptide sequence: NAESDNQELR, peptide start residue: 60)”: the log2 fold change was -0.48.
With “UniProt Q80VC9 (peptide sequence: SVSSDSLGPPRPVSTSSR, peptide start residue: 429)” the figure was -0.129; with “UniProt Q7TNG5 (peptide sequence: LLVSADDFGKVHLFSYPCCQPR, peptide start residue: 587)”, 0.254; with “UniProt Q6ZPI0 (peptide sequence: FHCDLVK, peptide start residue: 665)”, 0.329.
With “UniProt Q7TPQ3 (peptide sequence: RSETVSVLEATEEETR, peptide start residue: 71)”, the log2 fold change was -0.382.
Take “UniProt Q80U28 (peptide sequence: LASDSDAESDSR, peptide start residue: 815)”: the log2 fold change is -0.408.
With “UniProt Q80TZ3 (peptide sequence: AVLVVHPDK, peptide start residue: 1264)”, the log2 fold change is -0.42.
To “UniProt Q6WVG3 (peptide sequence: RLGAPQQPGPGPPPPHSR, peptide start residue: 128)” belongs 0.113; to “UniProt Q7TQK4 (peptide sequence: RYVPVKGDHVIGIVIAK, peptide start residue: 107)”, 0.531.
Regarding “UniProt Q80UN9 (peptide sequence: SYHMCDLCDR, peptide start residue: 393)”, the log2 fold change came out at 0.509.
For the target “UniProt Q80U56 (peptide sequence: EQMGSDQTHLFQK, peptide start residue: 349)”, the log2 fold change was -0.186.
With “UniProt Q7TNG8 (peptide sequence: TEAITQDNGGSHFSWAK, peptide start residue: 319)” the figure was -0.133; with “UniProt Q7TMV3 (peptide sequence: NQYCYGSR, peptide start residue: 703)”, -0.401.
Take “UniProt Q7TSC1 (peptide sequence: VPKPDALK, peptide start residue: 977)”: the log2 fold change worked out at 0.296.
To “UniProt Q7M753 (peptide sequence: LVYFEPK, peptide start residue: 200)” belongs -0.184.
As for “UniProt Q80U87 (peptide sequence: RPADVSPASVSGELNAGK, peptide start residue: 575)”, the log2 fold change is -0.303.
Take “UniProt Q7TN02 (peptide sequence: LLQAIDSQSNIR, peptide start residue: 15)”: the log2 fold change was 0.535.
“UniProt Q80T69 (peptide sequence: EVQTVCAGLTR, peptide start residue: 277)”: the log2 fold change was -0.294.
As for “UniProt Q7TSV4 (peptide sequence: QLIAGGNKEELRK, peptide start residue: 45)”, the log2 fold change is -0.565.
